Results: paper PMC6044906
Results are given in words; binding and its absence hold for the method and conditions named. In cells and extracts the contact can be indirect.

Biological target: ZMYND10 (mouse (endogenous in testes and oviduct))
Experiment: co-IP; endogenous ZMYND10 immunoprecipitated with two ZMYND10 antibodies from control and Zmynd10 mutant P30 mouse testes extracts, immunoblot; reciprocal endogenous immunoprecipitations for LRRC6 and DNAAF1, rIgG control; sodium molybdate in the IP buffer for HSP90

Row | binding | Binder
1 | no binding | DNAAF1 (protein, UniProt Q9D2H9 1-634) MHPEVSEPPVDSVAEPSLEESAGDHGDAGPGIRKEEISETKETCAGPCTTSCPSQQQPSGDNGSEGFCTHSRDDREDRGPRMTKQFLQKLCKQHKLYVTPALNDTLYLHFKGFDRIENLEEYTGLRCLWLECNGIQRIENLQAQSELRCLFLQVNLLHKIENLEPLQKLDALNLSNNYIKTIENLSCLPVLNTLQMAHNRLETVADIEHLRECLRLCVLDLSHNALSDPEILSVLESMPCLRVLNLMGNPVTKHIPNYRRTVTVRLKHLTYLDDRPVFPKDRACAEAWARGGYAAEKEERRQWESREHKKITDSLEALAMIKRRAEERKKARDRGETPLPDSEGSIPTSPEAEEKQPMGEIQKKMELFVEESFEAKDELFPETPGGEKELHVVVVNGAVENPDLSGSLAHNQTPVVVTPEESTSPVAATDGARTEDIEAVAVEIKERLFIDDLPDLEDAEGTDVSVEDQIKETDIPRIQAISSLSDDSDPELDELSLSTSEATPTGATGALSHIFAISKGPSTAATVPFTDICKPIATTDLESQGQDCGAAASRPLIQELNDEPAEEAANQPLPPQTCASDPALAHPSEDGDSDSQLPAATLLGDGAEDEAESSVHPKEPSTRVGLEDIEFGLD
2 | no binding | LRRC6 (protein, UniProt O88978 1-473) MGRITEDLIRRNAEHNDCVIFSLEELSLHQQEIERLEHIDKWCRDLKILYLQNNLIGKIENVSKLKKLEYLNLALNNIERIENLEGCEWLTKLDLTVNFIGELSSVKTLTHNIHLKELFLMGNPCADFDGYRQFVVVTLQQLKWLDGKEIERSERIQALQNYTSVEQQIREQEKAYCLRRAKEKEEAQRKLEEENESEDKKKSSTGFDGHWYTDIHTACPSATENQDYPQVPETQEEQHNTKESDDIEDDLAFWNKPSLFTPESRLETLRHMEKQRKAQDKLSEKKKKAKPPRTLITEDGKVLNVNEAKLDFSLKDDEKHNQIILDLAVYRYMDTSLIEVDVQPTYVRVMVKGKPFQLALSTEVQPDRSSAKRSQTTGHLLICMPKVGEMITGGQRTPTSVKTTSTSSREQTNPRKKQIERLEVDPSKHSCPDVSTIVQEKRHRPKRMESQPRDEPSEEDPDFEDNPEVPPLI
